Measured values published in US20220324934A1 (Stanford University, published 2022).
No constants are given. Whether binding was seen depends on the method and setting. Some binding calls cover weakened binding; strength is not graded here. Sequences can lack the tags named with a protein.

T1: IL-2Rβ (UniProt P14784 27-240, limits assumed, biotinylated (site not stated))
T1 construct: also called CD122; IL-2Rbeta
T1 sequence (looked up): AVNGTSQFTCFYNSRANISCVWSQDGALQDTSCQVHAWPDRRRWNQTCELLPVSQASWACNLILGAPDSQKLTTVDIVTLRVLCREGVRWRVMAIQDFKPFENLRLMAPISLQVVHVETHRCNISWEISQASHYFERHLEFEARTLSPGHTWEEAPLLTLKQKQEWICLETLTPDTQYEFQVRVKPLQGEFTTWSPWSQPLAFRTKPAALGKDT


Molecular target: T1, IL-2Rβ
Experiment: SPR Biacore

| Binder | binding |
| --- | --- |
| in silico designed IL-2 variant SEQ ID NO: 1, MSA fusion protein (ligand, not shown: large carriers; small tags and cut ends) APTSSSTKKTQLQLEHLLLDLQMILNMLNNYDNPKLTRLLTFKFYMPKKATSLKHLQCLEEELKPLEEALNAAGDDPKTIRDVVSNINVFVLELKGSETTFMCEYADETATIIEFLNRWITFCQSIISTLT | binds |
| in silico designed IL-2 variant SEQ ID NO: 7, MSA fusion protein (ligand, not shown: large carriers; small tags and cut ends) APTSSSTKKTQLQLEHLLLDLQMILNMLNNYDNPKLTRMLTFKFYMPKKATELKHLQCLEEELKPLEEALNQADSTDETVRDLISNINVIVLELKGSETTFMCEYADETATIIEFLNRWITFCQSIISTLT | binds |

Results, then the binder that gave them:

| binding | Binder |
| --- | --- |
| binds | in silico designed IL-2 variant SEQ ID NO: 6, MSA fusion protein (ligand, not shown: large carriers; small tags and cut ends) APTSSSTKKTQLQLEHLLLDLQMILNMLNNYENPKLTRMLTFKFYMPKKATSLKHLQCLEEELKPLEEALNQAGDDPKTIRDLISNINVIVLELKGSETTFMCEYADETATIIEFLNRWITFCQSIISTLT |
| binds | in silico designed IL-2 variant SEQ ID NO: 8, MSA fusion protein (ligand, not shown: large carriers; small tags and cut ends) APTSSSTKKTQLQLEHLLLDLQMILNMLNNYDNPKLTRLLTFKFYMPKKATSLKHLQCLEEELKPLEEALNAADSTDERIRDVVSNINVFVLELKGSETTFMCEYADETATIIEFLNRWITFCQSIISTLT |
